# Results of single-concentration screens

The chains behind the UniProt entries cited, without tags or fusion partners. Residues count along the entry.
UniProt A4I591, 1-473: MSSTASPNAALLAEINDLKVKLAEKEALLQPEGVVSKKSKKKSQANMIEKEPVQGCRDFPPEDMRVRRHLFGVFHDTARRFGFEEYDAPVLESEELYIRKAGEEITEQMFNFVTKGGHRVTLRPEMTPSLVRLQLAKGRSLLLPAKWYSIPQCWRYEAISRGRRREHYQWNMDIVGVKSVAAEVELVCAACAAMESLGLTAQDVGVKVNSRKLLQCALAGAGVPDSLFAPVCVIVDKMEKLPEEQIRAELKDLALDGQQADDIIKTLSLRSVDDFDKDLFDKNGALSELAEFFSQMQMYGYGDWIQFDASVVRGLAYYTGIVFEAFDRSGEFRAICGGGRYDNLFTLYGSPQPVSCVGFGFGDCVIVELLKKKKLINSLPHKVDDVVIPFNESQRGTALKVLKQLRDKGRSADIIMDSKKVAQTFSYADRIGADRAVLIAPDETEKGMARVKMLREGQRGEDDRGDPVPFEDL
UniProt P9WNZ1, whole entry: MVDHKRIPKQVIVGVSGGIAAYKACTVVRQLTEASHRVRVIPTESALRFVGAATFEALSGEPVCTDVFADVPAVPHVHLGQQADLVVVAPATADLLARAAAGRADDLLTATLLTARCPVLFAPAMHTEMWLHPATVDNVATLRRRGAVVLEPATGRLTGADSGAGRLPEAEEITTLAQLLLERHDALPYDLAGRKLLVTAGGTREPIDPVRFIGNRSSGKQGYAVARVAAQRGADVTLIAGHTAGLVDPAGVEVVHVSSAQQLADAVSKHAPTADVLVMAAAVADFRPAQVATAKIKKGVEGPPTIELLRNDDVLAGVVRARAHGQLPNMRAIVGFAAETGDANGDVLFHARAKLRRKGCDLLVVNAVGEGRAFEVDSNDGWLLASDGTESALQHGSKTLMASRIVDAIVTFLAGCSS
UniProt Q8IDJ8, 1-583: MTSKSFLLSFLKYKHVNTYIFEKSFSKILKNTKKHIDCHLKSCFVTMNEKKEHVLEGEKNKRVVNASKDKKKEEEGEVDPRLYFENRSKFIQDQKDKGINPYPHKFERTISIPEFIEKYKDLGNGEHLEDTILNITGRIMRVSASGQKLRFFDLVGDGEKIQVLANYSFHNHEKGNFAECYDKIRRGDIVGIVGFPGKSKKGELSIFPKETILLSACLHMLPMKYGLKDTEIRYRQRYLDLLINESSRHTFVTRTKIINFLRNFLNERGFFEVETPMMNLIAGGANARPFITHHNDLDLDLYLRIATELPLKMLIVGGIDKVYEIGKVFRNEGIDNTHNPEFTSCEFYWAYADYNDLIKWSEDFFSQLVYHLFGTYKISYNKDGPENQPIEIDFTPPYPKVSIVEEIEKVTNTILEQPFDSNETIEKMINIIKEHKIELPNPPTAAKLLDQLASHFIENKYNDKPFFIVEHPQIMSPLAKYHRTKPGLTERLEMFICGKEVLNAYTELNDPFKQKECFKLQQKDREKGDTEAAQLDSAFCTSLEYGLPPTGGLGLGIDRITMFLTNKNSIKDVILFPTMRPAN
UniProt P9WFT3, whole entry: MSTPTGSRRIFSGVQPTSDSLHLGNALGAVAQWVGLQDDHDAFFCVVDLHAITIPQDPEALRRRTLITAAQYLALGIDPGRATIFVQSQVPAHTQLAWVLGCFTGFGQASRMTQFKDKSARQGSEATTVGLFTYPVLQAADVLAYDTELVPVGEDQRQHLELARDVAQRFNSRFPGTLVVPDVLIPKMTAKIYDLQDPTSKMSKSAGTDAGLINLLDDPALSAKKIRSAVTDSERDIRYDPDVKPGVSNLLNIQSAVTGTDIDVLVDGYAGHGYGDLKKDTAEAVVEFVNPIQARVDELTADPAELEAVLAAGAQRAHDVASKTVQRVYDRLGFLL

The values are deposited in ChEMBL (CHEMBL3988442, “University of Dundee, Small-Polar-MMV Screening Library” (2021)).

LiHisRS: 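Enzyme assay of histidyl-tRNA synthetase; the read-out is not stated. Target: Histidine-tRNA ligase, Leishmania infantum (UniProt A4I591). Compounds at 30 µM. The record gives no direction; compounds that gave an IC50 in retests scored well above the rest, so higher reads as stronger inhibition. The assay is labelled LdHisRS but filed under L. infantum. Size under these conditions: about 69,000 compounds, about 410 of them at 50% or above in at least one test.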
CoaBC: 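Enzyme assay of CoaBC with a phosphate dye (Biomol Green) read at 650 nm. Target: Coenzyme A biosynthesis protein CoaBC, Mycobacterium tuberculosis (UniProt P9WNZ1). Compounds at 30 µM. Direction is inferred from only a few compounds that gave an IC50; most scored high, so higher reads as stronger inhibition. Most strong results did not repeat in a second test. Of about 67,000 compounds tested this way, about 40 (0.06%) reached 50% or more in at least one test.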
PfKRS1: 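Lysine-tRNA ligase, Plasmodium falciparum 3D7 (UniProt Q8IDJ8). Enzyme assay of the cytosolic lysyl-tRNA synthetase in 384-well plates, read by luminescence. Concentration: 30 µM. Higher reads as stronger inhibition, judged from the few compounds that gave an IC50. Size under these conditions: about 69,000 compounds, about 49 of them at 50% or above in at least one test.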
MtTrpRS: 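Enzyme assay of tryptophanyl-tRNA synthetase; the read-out is not stated. Target: Tryptophan-tRNA ligase, Mycobacterium tuberculosis (UniProt P9WFT3). Concentration: 10 µM. Higher most likely means stronger inhibition; the record gives no direction and few retests gave an IC50. Size under these conditions: about 65,000 compounds, about 64 of them at 50% or above in at least one test.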

Results are given as percent effect. The controls that fix the scale are not given in the record; negative values are as filed. Compounds were drawn at random from those tested, without regard to their results. A dash means the value is not listed here; it may have been measured.

structure | LiHisRS | CoaBC | PfKRS1 | MtTrpRS
Cc1ccc(CNC(=O)CCC(=O)NCCC(C)C)o1 | 20.59 | 7.332 | 3.556 | 12.39
CCC(Cn1ccc2[nH]c(=O)c(C#N)cc2c1=O)OC (centres undefined) | 8.602 | 1.029 | 34.14 | -0.9054
Cn1ncc2c1CCCC2NCc1cc(Br)cs1 (centres undefined) | 24 | 7.692 | 2.34 | 1.798
CCCn1nc(C(=O)NCCc2nnc3n2CCC3)ccc1=O | 12.9 | 4.97 | 2.766 | -3.502
Nc1nc(CNc2ncnc3c2CCN(Cc2ccoc2)CC3)cs1 | 29.03 | 7.995 | -2.915 | 4.613
Cc1ccccc1-n1cc(-c2ccnc(N3CCCC(O)C3)n2)cn1 (centres undefined) | 1.399 | -3.457 | 1.001 | -41.19
CC1=N[C@@]2(CC[C@@H]3CN(S(=O)(=O)CC(C)C)C[C@@H]32)C(=O)N1CC(C)C | 10.53 | -2.314 | 7.812 | -0.08719
Cc1n[nH]c2ncc(CNC3CCN(Cc4ccccn4)CC3)cc12 | 28.57 | -16.2 | 4.13 | 5.038
CN(C)C(=O)CN1C(=O)CCC12CCN(Cc1cccn1C)CC2 | 36.59 | -0.4837 | 1.371 | 0.8397
COc1cccc2c3c(c(=O)[nH]c12)CCO3 | -19.54 | 8.501 | -0.4802 | -5.302
COc1cccc(NC(=O)NC(C)(C)c2noc(C)n2)c1 | 28.77 | 1.923 | 1.773 | -1.675
C=Cn1cc(CN2CCc3nc(-c4cccnc4)nc(O)c3C2)c(C)n1 | 32.29 | 10.78 | 2.901 | -
O=C(c1cncc(NCC2COc3ccccc3C2)n1)N1CCCCC1 (centres undefined) | 10 | 12.25 | -2.481 | -2.78
CCCC(=O)NCC1CCCN(Cc2cc(C)c(C)o2)C1 (centres undefined) | 13.49 | -1.966 | 3.083 | 0.6721
CCc1c(C)nc2ccccc2c1N1CCC(NC(C)=O)CC1 | 14.67 | 3.719 | 5.202 | -0.2653
COCCC1COC2(CCN(C(=O)C3CCCCC3)CC2)C1 (centres undefined) | 5.263 | 6.314 | 1.346 | -2.885
CCN(c1ccc(C(=O)NCCCN2CCCCC2)cc1)S(=O)(=O)CC | 12.5 | 0.6329 | -2.313 | 4.203
Cc1cccc(I)c1C(=O)NCc1ncc[nH]1 | 8.547 | 10.26 | 4.196 | 0.07137
CCc1ccc(C(CNC(=O)c2c(C)noc2C)N(C)C)cc1 (centres undefined) | 12.84 | 8.095 | -2.858 | 21.19
CCc1c(C)nn(CCNC(=O)C2CCCN(C(=O)N(C)C)C2)c1C (centres undefined) | 22.86 | 1.754 | 3.199 | 1.754
COCCN1C[C@H]2[C@@H](C1)N(C(=O)CCc1ccccc1)CC[C@H]2OC | 11.5 | 3.609 | -0.2473 | -1.926
CCN(Cc1ccoc1)C(=O)Nc1ccccc1CN(C)C(C)=O | -4.444 | -0.9732 | -3.565 | -3.123
CNCC(=O)N1CCCC(c2nccnc2Oc2cccc(F)c2)C1 (centres undefined) | 9.489 | 4.922 | -5.732 | -1.057
CCc1nc(CN(C(C)=O)C2CCN(CCc3cnn(C)c3)C2)no1 (centres undefined) | -16.85 | -8.483 | -0.5807 | 1.023
CS(=O)(=O)N[C@@H]1CN(C(=O)c2cc3ccccc3s2)C[C@H]1O | 9.929 | 18.65 | -2.059 | 15.07
NC(=O)COc1ccc(CN2CCC(O)(CN3CCCCC3)C2)cc1Cl (centres undefined) | 22.22 | 2.433 | 3.106 | 3.123
Cn1cc(NCCOc2ccc(F)cc2)cn1 | 24.14 | 7.159 | 1.532 | 2.365
Cc1cc(NC(=O)C2CCN(c3nnc(C)c(C)c3C#N)CC2)no1 | 3.109 | 2.42 | 3.489 | -2.965
NC(=O)C1(Cc2ccc(-c3ccccc3)cc2)CCCNC1 (centres undefined) | 7.092 | 10.02 | 2.929 | -6.792
COc1cccc(OC)c1OCCN1C(=O)CCNC1=O | 19.05 | -5.583 | -5.827 | 0.7199
CC(C)c1nc2n(n1)CC(Nc1ncnc3ccccc13)CC2 (centres undefined) | 17.95 | 7.2 | 3.475 | -6.172
Cc1ccc2cc(CN(C)Cc3ccccn3)c(=O)[nH]c2c1 | 22.5 | 5.59 | 0.612 | 1.013
Cc1ccsc1CNC(=O)CC1CN(C(=O)OC(C)(C)C)C1 | 12.8 | 0.4878 | 2.802 | 0.1505
Cc1noc(-c2cccnc2N2CCOC(C)(c3cnn(C)c3)C2)n1 (centres undefined) | 6.14 | -1.768 | 5.381 | 6.95
O=C(c1ccco1)N1CCCC1C1CCN(Cc2ccccc2)CC1 (centres undefined) | 20 | 4.723 | 12.13 | -0.3178
Cc1csc(N2CCCN(Cc3ccn(C)c(=O)c3)CC2)n1 | 18.32 | 9.13 | -4.691 | -4.143
c1cc(-c2nnc(C3CCCN(CC4CCCCC4)C3)o2)ccn1 (centres undefined) | 10 | 4.089 | -0.4183 | -
CN1CCC(c2cncc(C(=O)NCc3ccc(F)cc3)n2)CC1 | 2.837 | 5.361 | 4.424 | -2.888
NCCc1n[nH]c(=O)n1-c1cccc(Cl)c1Cl | 18.03 | -2.381 | 1.845 | 7.89

Some entries from above, unchanged:

For COc1cccc(NC(=O)NC(C)(C)c2noc(C)n2)c1 the result was LiHisRS: 28.77%; CoaBC: 1.923%; PfKRS1: 1.773%; MtTrpRS: -1.675%.
For NCCc1n[nH]c(=O)n1-c1cccc(Cl)c1Cl the result was LiHisRS: 18.03%; CoaBC: -2.381%; PfKRS1: 1.845%; MtTrpRS: 7.89%.
For Cc1cccc(I)c1C(=O)NCc1ncc[nH]1 the result was LiHisRS: 8.547%; CoaBC: 10.26%; PfKRS1: 4.196%; MtTrpRS: 0.07137%.